Data taken from PMC3338697, “Determination of Membrane Protein Transporter Oligomerization in Native Tissue Using Spatial Fluorescence Intensity Fluctuation Analysis” (PLoS ONE, 2012).
These are yes or no findings as the source states them, for the method shown. Some results given as binding are weak or reduced against the parent protein; the word gives no strength. For some of these results: Where a sequence is shown, tags or fusion partners need not be part of it.

B1: NBCe1-A-EGFP (human electrogenic sodium bicarbonate cotransporter NBCe1-A, EGFP coupled to the N-terminus), expressed in CHO-K1 cells (protein, UniProt Q9Y6R1-2 1-1035)
chain: MSTENVEGKPSNLGERGRARSSTFLRVVQPMFNHSIFTSAVSPAAERIRFILGEEDDSPAPPQLFTELDELLAVDGQEMEWKETARWIKFEEKVEQGGERWSKPHVATLSLHSLFELRTCMEKGSIMLDREASSLPQLVEMIVDHQIETGLLKPELKDKVTYTLLRKHRHQTKKSNLRSLADIGKTVSSASRMFTNPDNGSPAMTHRNLTSSSLNDISDKPEKDQLKNKFMKKLPRDAEASNVLVGEVDFLDTPFIAFVRLQQAVMLGALTEVPVPTRFLFILLGPKGKAKSYHEIGRAIATLMSDEVFHDIAYKAKDRHDLIAGIDEFLDEVIVLPPGEWDPAIRIEPPKSLPSSDKRKNMYSGGENVQMNGDTPHDGGHGGGGHGDCEELQRTGRFCGGLIKDIKRKAPFFASDFYDALNIQALSAILFIYLATVTNAITFGGLLGDATDNMQGVLESFLGTAVSGAIFCLFAGQPLTILSSTGPVLVFERLLFNFSKDNNFDYLEFRLWIGLWSAFLCLILVATDASFLVQYFTRFTEEGFSSLISFIFIYDAFKKMIKLADYYPINSNFKVGYNTLFSCTCVPPDPANISISNDTTLAPEYLPTMSSTDMYHNTTFDWAFLSKKECSKYGGNLVGNNCNFVPDITLMSFILFLGTYTSSMALKKFKTSPYFPTTARKLISDFAIILSILIFCVIDALVGVDTPKLIVPSEFKPTSPNRGWFVPPFGENPWWVCLAAAIPALLVTILIFMDQQITAVIVNRKEHKLKKGAGYHLDLFWVAILMVICSLMALPWYVAATVISIAHIDSLKMETETSAPGEQPKFLGVREQRVTGTLVFILTGLSVFMAPILKFIPMPVLYGVFLYMGVASLNGVQFMDRLKLLLMPLKHQPDFIYLRHVPLRRVHLFTFLQVLCLALLWILKSTVAAIIFPVMILALVAVRKGMDYLFSQHDLSFLDDVIPEKDKKKKEDEKKKKKKKGSLDSDNDDSDCPYSEKVPSIKIPMDIMEQQPFLSDSKPSDRERSPTFLERHTSC
B2: NBCe1-A-bungarotoxin binding peptide construct (protein, UniProt Q9Y6R1-2 1-1035)
chain: B1 chain

Key:
[1] = biological target: NBCe1-A-EGFP (human electrogenic sodium bicarbonate cotransporter NBCe1-A, EGFP coupled to the N-terminus), expressed in CHO-K1 cells (human) (UniProt Q9Y6R1); experiment: fluorescence image moment analysis; CLSM images of basal membranes of fixed, adherent CHO-K1 cells transiently expressing the construct; quantal brightness normalised to a monomeric control (mEGFP for the EGFP fusion; Alexa 488 dye on glass for the Alexa 488-α-bungarotoxin label), 1 MEU
[2] = biological target: NBCe1-A-EGFP (human electrogenic sodium bicarbonate cotransporter NBCe1-A, EGFP coupled to the N-terminus), expressed in CHO-K1 cells (human) (UniProt Q9Y6R1); experiment: spatial intensity distribution analysis (SpIDA); two-population SpIDA of CLSM images of fixed CHO-K1 cells, a monomer-dimer mixture model assumed; calibrated with the monomeric brightness control of each label
[3] = biological target: NBCe1-A-bungarotoxin binding peptide construct (human) (UniProt Q9Y6R1); experiment: fluorescence image moment analysi
[4] = biological target: NBCe1-A-bungarotoxin binding peptide construct (human) (UniProt Q9Y6R1); experiment: spatial intensity distribution analysis (SpIDA); two-population SpIDA of CLSM images of fixed CHO-K1 cells, a monomer-dimer mixture model assumed; calibrated with the monomeric brightness control of each label

| Binder | binding [1] | binding [2] | binding [3] | binding [4] |
| --- | --- | --- | --- | --- |
| B1 | binds | binds weakly |  |  |
| B2 |  |  | binds | binds weakly |
